The text below walks through data of paper PMC5548489.

By UniProt entry, the sequences of proteins in these tests, tags left out.
UniProt Q15629: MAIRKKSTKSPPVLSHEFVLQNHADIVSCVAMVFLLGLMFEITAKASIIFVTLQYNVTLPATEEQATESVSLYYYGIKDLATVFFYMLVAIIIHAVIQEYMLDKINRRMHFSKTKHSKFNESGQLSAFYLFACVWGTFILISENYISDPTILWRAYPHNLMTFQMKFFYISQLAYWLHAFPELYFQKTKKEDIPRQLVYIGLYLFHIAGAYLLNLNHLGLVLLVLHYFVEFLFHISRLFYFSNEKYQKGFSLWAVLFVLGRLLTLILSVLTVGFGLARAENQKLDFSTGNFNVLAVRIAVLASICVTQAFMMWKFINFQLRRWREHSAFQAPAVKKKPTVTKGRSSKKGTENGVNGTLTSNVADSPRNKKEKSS
UniProt P51531: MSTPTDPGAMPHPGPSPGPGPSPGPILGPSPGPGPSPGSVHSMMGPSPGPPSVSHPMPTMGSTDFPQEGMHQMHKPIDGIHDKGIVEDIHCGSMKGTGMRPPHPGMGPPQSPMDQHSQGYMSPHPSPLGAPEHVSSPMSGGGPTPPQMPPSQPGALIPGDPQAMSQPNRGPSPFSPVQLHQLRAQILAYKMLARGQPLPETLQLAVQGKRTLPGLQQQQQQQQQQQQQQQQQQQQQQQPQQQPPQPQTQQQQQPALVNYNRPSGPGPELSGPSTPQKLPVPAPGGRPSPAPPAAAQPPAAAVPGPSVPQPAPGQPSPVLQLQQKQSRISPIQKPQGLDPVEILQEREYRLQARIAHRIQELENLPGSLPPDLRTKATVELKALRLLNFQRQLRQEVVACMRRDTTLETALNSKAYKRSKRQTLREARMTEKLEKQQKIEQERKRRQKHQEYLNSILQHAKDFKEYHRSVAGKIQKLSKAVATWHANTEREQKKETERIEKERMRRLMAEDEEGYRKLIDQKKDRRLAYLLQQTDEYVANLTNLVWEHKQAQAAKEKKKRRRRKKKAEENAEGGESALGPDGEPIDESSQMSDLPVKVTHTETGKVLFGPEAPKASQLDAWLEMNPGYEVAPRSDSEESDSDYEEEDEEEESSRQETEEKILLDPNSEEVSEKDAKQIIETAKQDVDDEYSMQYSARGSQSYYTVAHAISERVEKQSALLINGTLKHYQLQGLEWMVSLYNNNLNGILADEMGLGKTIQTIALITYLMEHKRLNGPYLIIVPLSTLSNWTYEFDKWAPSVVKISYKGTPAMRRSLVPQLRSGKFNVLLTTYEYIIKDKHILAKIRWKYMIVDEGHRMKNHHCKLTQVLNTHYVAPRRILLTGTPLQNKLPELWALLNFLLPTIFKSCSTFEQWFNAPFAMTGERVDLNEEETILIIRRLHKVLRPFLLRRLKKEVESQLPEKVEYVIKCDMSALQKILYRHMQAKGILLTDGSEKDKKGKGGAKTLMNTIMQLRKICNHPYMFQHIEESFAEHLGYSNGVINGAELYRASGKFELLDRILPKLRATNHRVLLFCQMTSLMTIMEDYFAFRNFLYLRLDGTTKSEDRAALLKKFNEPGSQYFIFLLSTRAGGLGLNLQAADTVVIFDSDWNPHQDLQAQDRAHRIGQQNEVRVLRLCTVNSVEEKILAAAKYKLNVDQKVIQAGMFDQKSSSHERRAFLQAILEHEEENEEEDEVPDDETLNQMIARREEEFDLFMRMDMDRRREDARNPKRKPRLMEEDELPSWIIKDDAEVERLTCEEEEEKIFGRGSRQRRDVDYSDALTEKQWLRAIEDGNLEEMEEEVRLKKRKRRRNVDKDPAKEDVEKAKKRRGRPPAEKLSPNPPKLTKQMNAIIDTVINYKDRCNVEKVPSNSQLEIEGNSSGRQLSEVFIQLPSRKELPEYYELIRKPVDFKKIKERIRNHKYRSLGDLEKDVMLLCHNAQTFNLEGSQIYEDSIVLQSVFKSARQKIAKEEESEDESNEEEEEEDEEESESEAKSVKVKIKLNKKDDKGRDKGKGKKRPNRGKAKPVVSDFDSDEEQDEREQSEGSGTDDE
UniProt P53618: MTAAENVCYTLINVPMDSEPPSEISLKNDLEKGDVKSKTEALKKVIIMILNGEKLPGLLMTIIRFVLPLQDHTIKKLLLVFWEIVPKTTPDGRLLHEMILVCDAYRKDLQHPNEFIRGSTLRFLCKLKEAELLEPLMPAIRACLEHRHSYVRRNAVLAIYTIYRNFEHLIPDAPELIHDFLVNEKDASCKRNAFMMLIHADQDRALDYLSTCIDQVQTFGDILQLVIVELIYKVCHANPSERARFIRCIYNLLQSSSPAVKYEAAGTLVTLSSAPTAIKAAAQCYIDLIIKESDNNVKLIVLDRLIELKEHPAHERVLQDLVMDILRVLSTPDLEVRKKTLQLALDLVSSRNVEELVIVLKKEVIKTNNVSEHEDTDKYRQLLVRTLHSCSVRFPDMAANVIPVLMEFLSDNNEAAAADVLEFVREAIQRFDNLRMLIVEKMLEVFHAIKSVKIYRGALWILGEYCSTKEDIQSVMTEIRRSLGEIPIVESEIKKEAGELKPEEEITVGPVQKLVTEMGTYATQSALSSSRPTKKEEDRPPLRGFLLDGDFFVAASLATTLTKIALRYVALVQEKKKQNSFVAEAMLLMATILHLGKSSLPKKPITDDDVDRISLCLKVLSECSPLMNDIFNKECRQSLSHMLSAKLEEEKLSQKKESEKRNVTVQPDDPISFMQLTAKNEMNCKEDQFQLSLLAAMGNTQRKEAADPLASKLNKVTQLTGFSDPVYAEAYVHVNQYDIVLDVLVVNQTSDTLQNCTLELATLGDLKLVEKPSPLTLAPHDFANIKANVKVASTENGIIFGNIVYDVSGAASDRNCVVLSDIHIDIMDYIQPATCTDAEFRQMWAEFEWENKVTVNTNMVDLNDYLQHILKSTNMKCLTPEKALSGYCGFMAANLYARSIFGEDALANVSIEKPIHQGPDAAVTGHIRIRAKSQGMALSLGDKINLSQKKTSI
UniProt Q9BUQ8: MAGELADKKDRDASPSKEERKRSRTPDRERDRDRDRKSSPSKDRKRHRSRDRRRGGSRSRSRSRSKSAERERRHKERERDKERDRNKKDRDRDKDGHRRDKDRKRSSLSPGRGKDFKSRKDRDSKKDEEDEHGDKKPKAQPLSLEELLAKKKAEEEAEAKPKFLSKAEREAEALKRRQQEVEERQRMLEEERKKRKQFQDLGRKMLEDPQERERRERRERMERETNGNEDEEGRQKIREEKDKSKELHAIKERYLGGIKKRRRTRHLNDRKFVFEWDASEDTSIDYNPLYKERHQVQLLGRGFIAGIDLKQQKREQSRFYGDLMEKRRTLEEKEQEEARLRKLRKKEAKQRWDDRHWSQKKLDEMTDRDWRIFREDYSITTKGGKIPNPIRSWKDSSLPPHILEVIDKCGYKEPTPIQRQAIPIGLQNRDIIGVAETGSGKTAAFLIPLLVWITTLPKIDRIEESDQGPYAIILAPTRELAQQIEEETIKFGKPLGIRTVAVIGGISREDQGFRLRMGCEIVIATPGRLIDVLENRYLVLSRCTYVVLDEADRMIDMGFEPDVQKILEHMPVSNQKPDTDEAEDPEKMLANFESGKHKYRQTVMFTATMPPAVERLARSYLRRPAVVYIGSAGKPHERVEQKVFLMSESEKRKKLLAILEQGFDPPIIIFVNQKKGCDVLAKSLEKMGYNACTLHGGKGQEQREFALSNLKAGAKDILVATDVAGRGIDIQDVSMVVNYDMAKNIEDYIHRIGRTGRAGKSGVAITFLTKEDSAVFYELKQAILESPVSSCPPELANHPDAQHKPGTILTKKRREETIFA
UniProt A6NHR9: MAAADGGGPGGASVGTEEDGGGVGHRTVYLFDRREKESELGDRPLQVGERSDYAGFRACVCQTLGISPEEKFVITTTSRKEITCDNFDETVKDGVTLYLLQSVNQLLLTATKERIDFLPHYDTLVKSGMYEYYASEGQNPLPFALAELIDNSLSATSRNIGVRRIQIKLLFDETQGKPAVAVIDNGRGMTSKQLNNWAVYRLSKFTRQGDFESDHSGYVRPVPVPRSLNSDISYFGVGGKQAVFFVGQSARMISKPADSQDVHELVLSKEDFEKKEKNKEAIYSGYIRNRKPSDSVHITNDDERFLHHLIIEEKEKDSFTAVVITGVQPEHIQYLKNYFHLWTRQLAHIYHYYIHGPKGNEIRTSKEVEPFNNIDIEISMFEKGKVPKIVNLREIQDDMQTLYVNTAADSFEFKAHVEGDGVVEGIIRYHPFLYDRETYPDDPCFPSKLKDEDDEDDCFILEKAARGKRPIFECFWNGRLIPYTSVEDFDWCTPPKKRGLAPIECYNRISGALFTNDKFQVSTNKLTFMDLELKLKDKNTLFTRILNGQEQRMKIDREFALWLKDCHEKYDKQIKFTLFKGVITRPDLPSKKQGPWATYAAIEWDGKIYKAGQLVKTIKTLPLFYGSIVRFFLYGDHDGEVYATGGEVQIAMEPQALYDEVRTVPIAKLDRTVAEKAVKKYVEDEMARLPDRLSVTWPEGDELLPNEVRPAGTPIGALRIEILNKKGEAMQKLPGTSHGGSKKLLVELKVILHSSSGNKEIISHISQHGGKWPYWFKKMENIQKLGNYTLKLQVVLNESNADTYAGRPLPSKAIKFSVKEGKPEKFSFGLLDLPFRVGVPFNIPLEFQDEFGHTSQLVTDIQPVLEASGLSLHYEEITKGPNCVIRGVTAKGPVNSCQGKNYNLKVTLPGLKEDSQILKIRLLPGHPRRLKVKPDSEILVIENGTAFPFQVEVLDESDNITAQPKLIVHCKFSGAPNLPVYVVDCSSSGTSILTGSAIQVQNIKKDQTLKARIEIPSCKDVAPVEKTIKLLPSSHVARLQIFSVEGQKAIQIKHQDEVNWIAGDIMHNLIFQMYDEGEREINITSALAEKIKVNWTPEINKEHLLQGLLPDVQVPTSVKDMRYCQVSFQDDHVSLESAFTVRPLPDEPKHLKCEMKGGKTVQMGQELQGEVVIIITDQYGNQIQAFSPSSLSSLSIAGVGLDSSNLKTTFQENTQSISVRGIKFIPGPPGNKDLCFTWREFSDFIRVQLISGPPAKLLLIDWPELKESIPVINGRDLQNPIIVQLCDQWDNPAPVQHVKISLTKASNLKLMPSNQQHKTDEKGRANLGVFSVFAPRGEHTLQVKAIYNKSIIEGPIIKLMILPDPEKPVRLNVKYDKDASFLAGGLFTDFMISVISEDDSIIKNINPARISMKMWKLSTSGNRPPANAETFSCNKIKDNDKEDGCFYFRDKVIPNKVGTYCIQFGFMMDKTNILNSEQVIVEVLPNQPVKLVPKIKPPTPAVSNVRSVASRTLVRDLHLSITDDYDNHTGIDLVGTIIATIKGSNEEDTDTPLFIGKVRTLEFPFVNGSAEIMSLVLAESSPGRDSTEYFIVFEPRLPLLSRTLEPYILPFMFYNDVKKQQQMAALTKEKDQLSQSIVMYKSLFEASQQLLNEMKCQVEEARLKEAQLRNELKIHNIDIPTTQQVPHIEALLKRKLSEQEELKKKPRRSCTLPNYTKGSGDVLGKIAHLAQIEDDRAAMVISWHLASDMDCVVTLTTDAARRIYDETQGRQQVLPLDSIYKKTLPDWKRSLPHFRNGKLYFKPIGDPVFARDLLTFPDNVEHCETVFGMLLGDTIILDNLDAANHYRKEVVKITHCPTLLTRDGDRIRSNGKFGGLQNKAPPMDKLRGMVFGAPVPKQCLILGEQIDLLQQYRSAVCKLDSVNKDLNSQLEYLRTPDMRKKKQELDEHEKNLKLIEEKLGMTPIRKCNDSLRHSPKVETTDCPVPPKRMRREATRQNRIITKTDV
UniProt O75475: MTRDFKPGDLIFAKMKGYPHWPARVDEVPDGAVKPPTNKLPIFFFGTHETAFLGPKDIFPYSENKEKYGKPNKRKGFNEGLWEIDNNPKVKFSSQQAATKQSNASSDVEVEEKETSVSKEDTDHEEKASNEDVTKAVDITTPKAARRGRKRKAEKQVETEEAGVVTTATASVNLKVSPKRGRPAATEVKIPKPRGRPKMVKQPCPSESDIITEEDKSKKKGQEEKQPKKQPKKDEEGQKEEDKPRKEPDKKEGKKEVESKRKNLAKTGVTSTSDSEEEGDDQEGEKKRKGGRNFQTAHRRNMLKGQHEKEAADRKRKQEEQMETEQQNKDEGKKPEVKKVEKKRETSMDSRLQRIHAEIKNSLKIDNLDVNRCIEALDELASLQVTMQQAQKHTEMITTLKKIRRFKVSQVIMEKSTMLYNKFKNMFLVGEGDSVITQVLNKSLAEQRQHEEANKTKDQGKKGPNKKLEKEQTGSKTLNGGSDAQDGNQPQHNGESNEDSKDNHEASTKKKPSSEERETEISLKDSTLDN

Results are given in words; binding and its absence hold for the method and conditions named. In cells and extracts the contact can be indirect. These calls come from enrichment with a bait or labelling near it, and not all partners need be listed.

B1: COG1 (protein, UniProt Q8WTW3 1-980)
chain: MATAATSPALKRLDLRDPAALFETHGAEEIRGLERQVRAEIEHKKEELRQMVGERYRDLIEAADTIGQMRRCAVGLVDAVKATDQYCARLRQAGSAAPRPPRAQQPQQPSQEKFYSMAAQIKLLLEIPEKIWSSMEASQCLHATQLYLLCCHLHSLLQLDSSSSRYSPVLSRFPILIRQVAAASHFRSTILHESKMLLKCQGVSDQAVAEALCSIMLLEESSPRQALTDFLLARKATIQKLLNQPHHGAGIKAQICSLVELLATTLKQAHALFYTLPEGLLPDPALPCGLLFSTLETITGQHPAGKGTGVLQEEMKLCSWFKHLPASIVEFQPTLRTLAHPISQEYLKDTLQKWIHMCNEDIKNGITNLLMYVKSMKGLAGIRDAMWELLTNESTNHSWDVLCRRLLEKPLLFWEDMMQQLFLDRLQTLTKEGFDSISSSSKELLVSALQELESSTSNSPSNKHIHFEYNMSLFLWSESPNDLPSDAAWVSVANRGQFASSGLSMKAQAISPCVQNFCSALDSKLKVKLDDLLAYLPSDDSSLPKDVSPTQAKSSAFDRYADAGTVQEMLRTQSVACIKHIVDCIRAELQSIEEGVQGQQDALNSAKLHSVLFMARLCQSLGELCPHLKQCILGKSESSEKPAREFRALRKQGKVKTQEIIPTQAKWQEVKEVLLQQSVMGYQVWSSAVVKVLIHGFTQSLLLDDAGSVLATATSWDELEIQEEAESGSSVTSKIRLPAQPSWYVQSFLFSLCQEINRVGGHALPKVTLQEMLKSCMVQVVAAYEKLSEEKQIKKEGAFPVTQNRALQLLYDLRYLNIVLTAKGDEVKSGRSKPDSRIEKVTDHLEALIDPFDLDVFTPHLNSNLHRLVQRTSVLFGLVTGTENQLAPRSSTFNSQEPHNILPLASSQIRFGLLPLSMTSTRKAKSTRNIETKAQVVPPARSTAGDPTVPGSLFRQLVSEEDNTSAPSLFKLGWLSSMTK

In one test the target is estrogen receptor alpha (ER) (human (endogenous in MCF-7 and ZR-75)) (UniProt P03372). Kind of test: affinity purification with mass spectrometry; anti-ER antibody (Santa Cruz sc-8002) on Dynabeads Protein G, 1.5 mg lysate of MCF-7 or ZR-75 cells overnight at 4°C; cells starved, vehicle or 10 µM ERX-11 for 2 hr, then 10 nM E2 for 2 hr; the named proteins are ER binders whose co-precipitation was disrupted by ERX-11.
As for B1, the binding result was “binds”.

Another test shares this target. The description is as above. This is another data set of the same source.
Take RBM10 (from UniProt P98175 1-930): the binding result is “binds”. Same read-out and setting: next, RAD50 (from UniProt Q92878 1-1312): “binds”; EXOC2 (from UniProt Q96KP1 1-924): “binds”. Same read-out and setting: next, CUL4B (from UniProt Q13620 1-913): “binds”; DIDO1 (from UniProt Q9BTC0 1-2240): “binds”. Turning to TRIM33 (from UniProt Q9UPN9 1-1127), the binding result was “binds”. On the same count and under the same terms, next, HNRNPK (from UniProt P61978 1-463): “binds”.

For the molecule TRAM1 (from UniProt Q15629 1-374), the binding entry is recorded as “binds”. As to SF3B3 (from UniProt Q15393 1-1217), the binding entry is “binds”.

As to ACTN1 (from UniProt P12814 1-892), the binding result is “binds”. Consider PPP3CA (from UniProt Q08209 1-521), for which the binding result is listed as “binds”. For the molecule INTS4 (from UniProt Q96HW7 1-963), the binding result is reported as “binds”. Take GEMIN5 (from UniProt Q8TEQ6 1-1508): the binding entry is recorded as “binds”. The same measure, in the same setting: next, RANBP2 (from UniProt P49792 1-3224): “binds”; SEC23A (from UniProt Q15436 1-765): “binds”. On the same count and under the same terms, with KPNB1 (from UniProt Q14974 1-876) the entry was “binds”. For POLR3C (from UniProt Q9BUI4 1-534), the binding entry was “binds”. Still for that read-out and setting: next, SMARCA4 (from UniProt P51532 1-1647): “binds”. Same read-out and setting: next, SF3B1 (from UniProt O75533 1-1304): “binds”; PCF11 (from UniProt O94913 1-1555): “binds”; PREX1 (from UniProt Q8TCU6 1-1659): “binds”. As to TUBB (from UniProt P07437 1-444), the binding result is reported as “binds”.

For SMARCA2 (from UniProt P51531 1-1590), the binding entry is “binds”.

Consider SMARCD2 (from UniProt Q92925 1-531), for which the binding entry is given as “binds”. On the same count and under the same terms, next, EXOC8 (from UniProt Q8IYI6 1-725): “binds”; INTS5 (from UniProt Q6P9B9 1-1019): “binds”; EXOC4 (from UniProt Q96A65 1-974): “binds”. As to COPB1 (from UniProt P53618 1-953), the binding result was “binds”. Take EXOC5 (from UniProt O00471 1-708): the binding result was “binds”. For DHX15 (from UniProt O43143 1-795), the binding result is “binds”. Take KPNA4 (from UniProt O00629 1-521): the binding entry was “binds”. On the same count and under the same terms, with MCM2 (from UniProt P49736 1-904) the entry was “binds”. Same read-out and setting: next, DMAP1 (from UniProt Q9NPF5 1-467): “binds”. On the same count and under the same terms, with DDX20 (from UniProt Q9UHI6 1-824) the entry was “binds”; with NUMA1 (from UniProt Q14980 1-2115), “binds”; with EIF4G2 (from UniProt P78344 1-907), “binds”. On to NCBP1 (from UniProt Q09161 1-790), for which the binding result is listed as “binds”. In the case of DDX17 (from UniProt Q92841 1-729), the binding result is reported as “binds”. On the same count and under the same terms, with EP400 (from UniProt Q96L91 1-3159) the entry was “binds”. The same measure, in the same setting: next, PELP1 (from UniProt Q8IZL8 1-1130): “binds”. On the same count and under the same terms, next, SYNCRIP (from UniProt O60506 1-623): “binds”. For DYNC1H1 (from UniProt Q14204 1-4646), the binding result is “binds”. Same read-out and setting: with SCRIB (from UniProt Q14160 1-1655) the entry was “binds”; with DDX23 (from UniProt Q9BUQ8 1-820), “binds”. For the molecule EIF2S2 (from UniProt P20042 1-333), the binding result was “binds”.

For SMC3 (from UniProt Q9UQE7 1-1217), the binding result is on record as “binds”. For the molecule “Coatomer subunit alpha (from UniProt P53621 1-1224)”, the binding result was “binds”. PSMC1 (from UniProt P62191 1-440): the binding result is given as “binds”. Regarding SMCHD1 (from UniProt A6NHR9 1-2005), the binding entry is recorded as “binds”.

Consider CLTC (from UniProt Q00610 1-1675), for which the binding entry is on record as “binds”. The same measure, in the same setting: with CPSF3L (from UniProt Q5TA45 1-600) the entry was “binds”. Turning to INTS2 (from UniProt Q9H0H0 1-1196), the binding entry is reported as “binds”. In the case of PPP2R1A (from UniProt P30153 1-589), the binding result was “binds”. With PSMC4 (from UniProt P43686 1-418), the binding result was “binds”. With MED1 (from UniProt Q15648 1-1581), the binding result is on record as “binds”.

For the molecule PSMD5 (from UniProt Q16401 1-504), the binding result was “binds”.

For AP2A2 (from UniProt O94973 1-939), the binding entry was “binds”. The same measure, in the same setting: with PSIP1 (from UniProt O75475 1-530) the entry was “binds”; with ZCCHC8 (from UniProt Q6NZY4 1-707), “binds”. Same read-out and setting: with CSE1L (from UniProt P55060 1-971) the entry was “binds”; with SMC4 (from UniProt Q9NTJ3 1-1288), “binds”. Same read-out and setting: with KDM3B (from UniProt Q7LBC6 1-1761) the entry was “binds”; with CHD1L (from UniProt Q86WJ1 1-897), “binds”; with EPRS (from UniProt P07814 1-1512), “binds”. In the case of VCP (from UniProt P55072 1-806), the binding entry is recorded as “binds”. Still for that read-out and setting: with ZNF217 (from UniProt O75362 1-1048) the entry was “binds”; with NUP153 (from UniProt P49790 1-1475), “binds”; with ZBTB7A (from UniProt O95365 1-584), “binds”. On the same count and under the same terms, next, AHNAK (from UniProt Q09666 1-5890): “binds”; PSMD3 (from UniProt O43242 1-534): “binds”; TNPO1 (from UniProt Q92973 1-898): “binds”. Still for that read-out and setting: next, SMARCC2 (from UniProt Q8TAQ2 1-1214): “binds”; TUBA1B (from UniProt P68363 1-451): “binds”. With GTF2I (from UniProt P78347 1-998), the binding result was “binds”. Regarding PRPF40a (from UniProt O75400 1-957), the binding entry was “binds”. On the same count and under the same terms, next, EXOC3 (from UniProt O60645 1-745): “binds”; ACTN4 (from UniProt O43707 1-911): “binds”.
